In PMC4201560:
These are yes or no findings as the source states them, for the method shown. In cells and extracts the contact can be indirect.

Columns and labels:
Sal3-TAP (S. pombe) = target: T1, Sal3-TAP (S. pombe) (UniProt O74476); assay: pull-down; TAP pull-down: total lysates of iron-starved (Dip 250 µM, 3 h) S. pombe php4Δ cells co-expressing GFP-Php4 and a TAP-tagged karyopherin or TAP alone; IgG-Sepharose 6 Fast-Flow beads, 30 to 60 min at 4°C, washed with lysis buffer; bound fraction blotted with anti-GFP, anti-IgG and anti-α-tubulin
T1 sequence: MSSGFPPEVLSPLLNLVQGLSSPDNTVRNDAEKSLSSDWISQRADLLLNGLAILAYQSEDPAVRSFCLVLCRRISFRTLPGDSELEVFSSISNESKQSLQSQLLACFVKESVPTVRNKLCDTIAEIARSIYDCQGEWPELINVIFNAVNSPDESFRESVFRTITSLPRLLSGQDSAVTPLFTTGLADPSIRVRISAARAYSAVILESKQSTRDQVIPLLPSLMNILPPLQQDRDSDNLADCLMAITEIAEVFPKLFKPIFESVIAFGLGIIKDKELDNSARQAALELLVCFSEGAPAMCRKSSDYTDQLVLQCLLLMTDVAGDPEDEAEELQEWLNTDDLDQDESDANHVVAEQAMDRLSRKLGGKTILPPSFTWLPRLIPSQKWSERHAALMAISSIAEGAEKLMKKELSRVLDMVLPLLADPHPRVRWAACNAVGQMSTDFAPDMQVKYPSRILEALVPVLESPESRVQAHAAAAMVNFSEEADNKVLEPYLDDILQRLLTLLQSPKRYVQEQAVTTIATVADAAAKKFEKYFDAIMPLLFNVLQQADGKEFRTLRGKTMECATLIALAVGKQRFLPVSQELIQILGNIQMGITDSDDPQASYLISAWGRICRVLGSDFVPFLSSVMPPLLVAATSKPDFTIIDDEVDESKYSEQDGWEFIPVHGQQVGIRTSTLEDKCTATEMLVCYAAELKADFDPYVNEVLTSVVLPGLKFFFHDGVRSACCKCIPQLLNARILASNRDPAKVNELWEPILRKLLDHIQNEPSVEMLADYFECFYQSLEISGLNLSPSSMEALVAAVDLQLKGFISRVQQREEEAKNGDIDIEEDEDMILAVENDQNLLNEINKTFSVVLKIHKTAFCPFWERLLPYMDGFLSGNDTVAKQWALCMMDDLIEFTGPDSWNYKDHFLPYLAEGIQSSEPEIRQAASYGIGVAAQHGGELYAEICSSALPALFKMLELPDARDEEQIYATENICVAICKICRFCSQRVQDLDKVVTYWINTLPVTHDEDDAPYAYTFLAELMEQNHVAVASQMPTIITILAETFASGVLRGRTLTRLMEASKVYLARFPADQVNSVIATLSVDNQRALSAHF

Imp1-TAP (S. pombe) = target: T2, Imp1-TAP (S. pombe) (UniProt O94374); assay: as above
T2 sequence: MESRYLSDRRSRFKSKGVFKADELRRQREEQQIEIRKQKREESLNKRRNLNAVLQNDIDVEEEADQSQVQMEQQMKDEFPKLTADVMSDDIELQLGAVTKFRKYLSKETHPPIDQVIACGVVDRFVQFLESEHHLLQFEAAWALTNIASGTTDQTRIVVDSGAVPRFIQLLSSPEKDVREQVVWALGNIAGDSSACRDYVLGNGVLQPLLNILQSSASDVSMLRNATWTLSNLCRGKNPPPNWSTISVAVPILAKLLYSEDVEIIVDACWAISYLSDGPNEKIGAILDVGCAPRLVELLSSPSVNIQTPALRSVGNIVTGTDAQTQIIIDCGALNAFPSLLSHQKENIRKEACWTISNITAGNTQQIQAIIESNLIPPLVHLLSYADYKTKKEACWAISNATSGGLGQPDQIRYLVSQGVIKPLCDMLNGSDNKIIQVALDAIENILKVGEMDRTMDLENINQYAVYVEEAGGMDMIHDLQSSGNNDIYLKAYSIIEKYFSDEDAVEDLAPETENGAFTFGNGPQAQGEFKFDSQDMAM

- binding (Sal3-TAP (S. pombe)): no binding
- binding (Imp1-TAP (S. pombe)): no binding
Substance: α-tubulin (S. pombe (endogenous in S. pombe cells))
